These are yes or no findings as the source states them, for the method shown. Binding seen in cells or lysates may run through a third protein. A yes stands for co-enrichment or nearness to the bait. Other partners may have been found. A no says only that the protein was not detected with the bait.
B1: PPP6R3, a regulatory subunit of PP6 (protein, UniProt Q922D4 1-844)
chain: MFWKFDLHSSSHIDTLLEREDVTLKELMDEEDVLQECKAQNRKLIEFLLKAECLEDLVSFIIEEPPQDMDEKIRYKYPNISCELLTSDVSQMNDRLGEDESLLMKLYSFLLNESPLNPLLASFFSKVLSILISRKPEQIVDFLKKKRDFVDLIIKHIGTSAIMDLLLRLLTCIEPPQPRQDVLNWLNEERIIQRLVEIVHPSQEEDRHSNASQSLCEIVRLSRDQMLQVQNSTEPDPLLATLEKQEIIEQLLSNIFHKEKNESAIVSAIQILLTLLETRRPTFEGHIEICPPGMSHSACSVNKSVLEAIRGRLGSFHELLLEPPKKSVMKTTWGILDPPVGNTRLNVIRLISSLLQTNTSSINGDLMELNSIGVILDMFFKYTWNNFLHTQVEICIALILASPFENAENGTITDQDSTGDNLLLKHLFQKCQLIERILEAWDTNEKKQAEGGRRHGYMGHLTRIANCIVHSTDKGPNSALVQQLIKDLPDEVRERWETFCTNSLGETNKRNTVDLAFSDYQMQQMTSNFIDQFGFNDEKFADQDDIGNVSFDRVSDINFTLNTNESGNIALFEACCKERIQQFDDGGSDEEDIWEEKHIAFTPESQRRSSSGSTDSEESTDSEEEDGAKQDLFESSSANTEDKMEVDLNEPPTWSANFDVPMETTHGAPLDSVGSDVWSTEEPMPTKETGWASFSEFTSSLSTKESLRSNSPVEMETSTESVDPLTPGAAALATQPEAPGSMAMEASSDGEEDAESTDKVTETVMNGGMKETLSLTVDAKTETAVFKSEEEKLSTSQDAACKDAEETPEPAEAKCTAPLTPSSSPEQRTDQPSMPSDPSVNGPV
B2: Ankrd28 (protein, UniProt Q505D1 1-1053)
chain: MAFLKLRDQPSLVQAIFNGDPDEVRALIFKKEDVNFQDNEKRTPLHAAAYLGDAEIIELLILSGARVNAKDSKWLTPLHRAVASCSEEAVQILLKHSADVNARDKNWQTPLHIAAANKAVKCAESLVPLLSNVNVSDRAGRTALHHAAFSGHGEMVKLLLSRGANINAFDKKDRRAIHWAAYMGHIEVVKLLVSHGAEVTCKDKKSYTPLHAAASSGMISVVKYLLDLGVDMNEPNAYGNTPLHVACYNGQDVVVNELIDCGANVNQKNEKGFTPLHFAAASTHGALCLELLVGNGADVNMKSKDGKTPLHMTALHGRFSRSQTIIQSGAVIDCEDKNGNTPLHIAARYGHELLINTLITSGADTAKRGIHGMFPLHLAALSGFSDCCRKLLSSGFDIDTPDDFGRTCLHAAAAGGNLECLNLLLNTGADFNKKDKFGRSPLHYAAANCNYQCLFALVGSGASVNDLDERGCTPLHYAATSDTDGKCLEYLLRNDANPGIRDKQGYNAVHYSAAYGHRLCLQLIASETPLDVLMETSGTDMLSDSDNRATISPLHLAAYHGHHQALEVLVQSLLDLDVRNSSGRTPLDLAAFKGHVECVDVLINQGASILVKDYVLKRTPIHAAATNGHSECLRLLIGNAEPQNAVDIQDGNGQTPLMLSVLNGHTDCVYSLLNKGANVDAKDKWGRTALHRGAVTGHEECVDALLQHGAKCLLRDSRGRTPIHLSAACGHIGVLGALLQSATSVDANPAVVDNHGYTALHWACYNGHETCVELLLEQDVFQKIDGNAFSPLHCAVINDNEGAAEMLIDSLGASIVNATDSKGRTPLHAAAFTDHVECLQLLLSQNAQVNSADSTGKTPLMMAAENGQTNTVEMLVSSASADLTLQDKSKNTALHLACGKGHETSALLILEKITDRNLINATNAALQTPLHVAARNGLTMVVQELLGKGASVLAVDENGYTPALACAPNKDVADCLALILATMMPVSSSSPLTSLTFNAINRYTNTSKTVSFEALPIMRNEASSYCSFNNIGGEQEYLYTDVDELNDSDSETY
B3: Ankrd44 (protein, UniProt B2RXR6 1-993)
chain: MAVLKLCEQPPLVQAIFSGDPEEIRMLIHKTEDVNALDSEKRTPLHVAAFLGDAEIIELLILSGARVNAKDNMWLTPLHRAVASRSEEAVQVLIKHSADVNARDKNWQTPLHVAAANKAVKCAEVIIPLLSSVNVSDRGGRTALHHAALNGHMEMVNLLLAKGANINAFDKKDRRALHWAAYMGHLDVVALLINHGAEVTCKDKKGYTPLHAAASNGQISVVKHLLNLGVEIDEINVYGNTALHIACYNGQDAVVNELIDYGANVNQPNNSGFTPLHFAAASTHGALCLELLVNNGADVNIQSKDGKSPLHMTAVHGRFTRSQTLIQNGGEIDCVDKDGNTPLHVAARHGHELLINTLITSGADTAKCGIHSMFPLHLAALNAHSDCCRKLLSSGFEIDTPDTFGRTCLHAAAAGGNVECIKLLQSSGADFHKKDKCGRTPLHYAAANCHFHCIKALVTTGANVNETDDWGRTALHYAAASDMDRNKMILGNAHDNSEELERAREVKEKDAALCLEFLLQNDANPSIRDKEGYNSIHYAAAYGHRQCLELLLERTNTGFEESDGGALKSPLHLAAYNGHHQALEVLLQSLVDLDIRDEKGRTALYLAAFKGHTECVEALVNQGASIFVKDNVTKRTPLHASVINGHTLCLRLLLETADNPEVVDVKDAKGQTPLMLAVAYGHIDAVSLLLEKEANVDAVDIVGCTALHRGIMTGHEECVQMLLEQEASILCKDSRGRTPLHYAAARGHATWLNELLQIALSEEDCCLKDNQGYTPLHWACYNGNENCIEVLLEQKCFRKFIGNPFTPLHCAIINGHESCASLLLGAIDPSIVSCRDDKGRTTLHAAAFGDHAECLQLLLRHDAQVNAVDNSGKTALMMAAENGQAGAVDILVNSAQADLTVKDKDLNTPLHLAISKGHEKCALLILDKIQDESLINAKNSALQTPLHIAARNGLKVVVEELLAKGACVLAVDENASRSNGPRSPPGTAVRKEE
B4: Ankrd 52 (protein, UniProt Q8BTI7 1-1076)
chain: MGILSITDQPPLVQAIFSRDVEEVRSLLSQKENINVLDQERRTPLHAAAYVGDVPILQLLLMSGANVNAKDTLWLTPLHRAAASRNEKVLGLLLAHSADVNARDKLWQTPLHVAAANRATKCAEALAPLLSSLNVADRSGRSALHHAVHSGHLETVNLLLNKGASLNVCDKKERQPLHWAAFLGHLEVLKLLVARGADLSCKDRKGYGLLHTAAASGQIEVVKHLLRMGAEIDEPNAFGNTALHIACYLGQDAVAIELVNAGANVNQPNDKGFTPLHVAAVSTNGALCLELLVNNGADVNYQSKEGKSPLHMAAIHGRFTRSQILIQNGSEIDCADKFGNTPLHVAARYGHELLISTLMTNGADTARRGIHDMFPLHLAVLFGFSDCCRKLLSSGQLYSIVSSLSNEHVLSAGFDINTPDSLGRTCLHAAASGGNVECLNLLLSSGADLRRRDKFGRTPLHYAAANGSYQCAVTLVTAGAGVNEADCKGCSPLHYAAASDTYRRAEPHTASSHDAEEDELLKESRRKEAFFCLEFLLDNGADPSLRDRQGYTAVHYAAAYGNRQNLELLLEMSFNCLEDVESTVPVSPLHLAAYNGHCEALKTLAETLVNLDVRDHKGRTALFLATERGSTECVEVLTAHGASALIKERKRKWTPLHAAAASGHTDSLHLLIDSGERADITDVMDAYGQTPLMLAIMNGHVDCVHLLLEKGSTADAADLRGRTALHRGAVTGCEDCLAALLDHDAFVLCRDFKGRTPIHLASACGHTAVLRTLLQAALSTDPLDAGVDYSGYSPMHWASYTGHEDCLELLLEHSPFSYLEGNPFTPLHCAVINNQDSTTEMLLGALGAKIVNSRDAKGRTPLHAAAFADNVSGLRMLLQHQAEVNATDHTGRTALMTAAESGQTAAVEFLLYRGKADLTVLDENKNTALHLACSKGHEKCALMILAETQDLGLINATNSALQMPLHIAARNGLASVVQALLSRGATVLAVDEEGHTPALACAPNKDVADCLALILSTMKPFPPKDAVSPFSFSLLKNCGIAAAKTVGGCGALPHGASCPYSQERHGAIGLDGCYSE

Amino acid sequences for entries named in this document (tags omitted). A change or cut given only in a name is not applied to a line headed by its entry.
UniProt P01375: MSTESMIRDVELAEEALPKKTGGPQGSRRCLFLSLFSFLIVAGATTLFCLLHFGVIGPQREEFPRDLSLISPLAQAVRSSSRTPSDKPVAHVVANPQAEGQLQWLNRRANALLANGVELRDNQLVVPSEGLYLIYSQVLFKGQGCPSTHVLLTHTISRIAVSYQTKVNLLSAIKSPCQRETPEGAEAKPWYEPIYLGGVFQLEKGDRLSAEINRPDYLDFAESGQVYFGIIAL

Molecular target: Flag-TNFα (UniProt P01375)
Test: affinity purification with mass spectrometry; MEFs treated with Flag-TNFα (150 ng/ml) or PBS for 15 min, NP-40 lysis, anti-Flag beads, on-bead trypsin digestion, Q Exactive HF, MaxQuant against UniProt mouse database; only the target purified

Question: With B1 as the binder, how does the binding read?
Answer: binds

Question: Which binding does the source give for B2 here?
Answer: no binding

Question: B3 was tested. Which binding did it give?
Answer: no binding

Question: Which binding does the source give for B4 here?
Answer: no binding
